{"source": "PubChem BioAssay AID602196 (INSERM, 2012)", "assay": "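Genes whose knock-down alters cisplatin killing of lung cancer cells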", "cells": "human A549 lung cancer cells", "knock-down reagent": "siRNA pair against human genes", "time to read-out": "48 h transfection before cisplatin; time from cisplatin to read-out not stated", "challenge": "cisplatin at a dose killing half of control-siRNA cells; exact dose and duration not given", "read-out": "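Shift in cisplatin death relative to control siRNA, from -50 (all cells die) to +50 (no cells die); siRNAs harmful on their own scored 0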", "reading the numbers": "two-siRNA summed score (-2 to +2): higher = both siRNAs protect from cisplatin killing; -2 means both sensitise; mean protection from cisplatin (shift in death): higher = protection from cisplatin killing", "rule for the call": "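Each siRNA scores 0 if harmful alone by LDH or WST-1, otherwise +1 if it reduces and -1 if it increases cisplatin killing; a gene is active when both siRNAs agree (sum +2 or -2)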", "meaning of the calls": "active = both siRNAs shift cisplatin killing the same way; inactive = no consistent shift, or siRNA harmful alone", "note": "In all, the deposit lists about 23,000 reagents; shown is a random part of them. 455 of all reagents (2%) count as active. 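Active includes both protection and sensitisation; some change values fall well beyond the stated -50 to +50 range.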 Unmarked entries are inactive. Further read-outs or replicates are left out here. Not given: the amount of reagent."}
{"gene symbol": "POPDC1 (popeye domain cAMP effector 1)", "two-siRNA summed score (-2 to +2)": 0, "mean protection from cisplatin (shift in death) (%)": 1.8}
{"gene symbol": "ARL4A (ARF like GTPase 4A)", "two-siRNA summed score (-2 to +2)": -1, "mean protection from cisplatin (shift in death) (%)": -0.4}
{"gene symbol": "TMEM100 (transmembrane protein 100)", "two-siRNA summed score (-2 to +2)": 0, "mean protection from cisplatin (shift in death) (%)": -4.4}
{"gene symbol": "RUNX3 (RUNX family transcription factor 3)", "two-siRNA summed score (-2 to +2)": -1, "mean protection from cisplatin (shift in death) (%)": -8.6}
{"gene symbol": "GAA (alpha glucosidase)", "two-siRNA summed score (-2 to +2)": -1, "mean protection from cisplatin (shift in death) (%)": -1.7}
{"gene symbol": "LOC387742", "two-siRNA summed score (-2 to +2)": -1, "mean protection from cisplatin (shift in death) (%)": 11.5}
{"gene symbol": "COPS7A (COP9 signalosome subunit 7A)", "two-siRNA summed score (-2 to +2)": 0, "mean protection from cisplatin (shift in death) (%)": 14}
{"gene symbol": "GPR157 (G protein-coupled receptor 157)", "two-siRNA summed score (-2 to +2)": 0, "mean protection from cisplatin (shift in death) (%)": 3.8}
{"gene symbol": "SPMIP9 (sperm microtubule inner protein 9)", "two-siRNA summed score (-2 to +2)": 0, "mean protection from cisplatin (shift in death) (%)": 2.9}
{"gene symbol": "WDR89 (WD repeat domain 89)", "two-siRNA summed score (-2 to +2)": 0, "mean protection from cisplatin (shift in death) (%)": 7.6}
{"gene symbol": "RABGGTB (Rab geranylgeranyltransferase subunit beta)", "two-siRNA summed score (-2 to +2)": 0, "mean protection from cisplatin (shift in death) (%)": 1.2}
{"gene symbol": "CCIN (calicin)", "two-siRNA summed score (-2 to +2)": 1, "mean protection from cisplatin (shift in death) (%)": 12.7}
{"gene symbol": "CHCHD6 (coiled-coil-helix-coiled-coil-helix domain containing 6)", "two-siRNA summed score (-2 to +2)": 0, "mean protection from cisplatin (shift in death) (%)": 5.1}
{"gene symbol": "IFIT3 (interferon induced protein with tetratricopeptide repeats 3)", "two-siRNA summed score (-2 to +2)": 0, "mean protection from cisplatin (shift in death) (%)": 4}
{"gene symbol": "PAQR4 (progestin and adipoQ receptor family member 4)", "two-siRNA summed score (-2 to +2)": 0, "mean protection from cisplatin (shift in death) (%)": 13.1}
{"gene symbol": "LOC401861", "two-siRNA summed score (-2 to +2)": 0, "mean protection from cisplatin (shift in death) (%)": 19.6}
{"gene symbol": "PTAFR (platelet activating factor receptor)", "two-siRNA summed score (-2 to +2)": 0, "mean protection from cisplatin (shift in death) (%)": -8}
{"gene symbol": "BHLHE41 (basic helix-loop-helix family member e41)", "two-siRNA summed score (-2 to +2)": 0, "mean protection from cisplatin (shift in death) (%)": 0.4}
{"gene symbol": "RSPH4A (radial spoke head component 4A)", "two-siRNA summed score (-2 to +2)": 1, "mean protection from cisplatin (shift in death) (%)": 9.8}
{"gene symbol": "VIPAS39", "two-siRNA summed score (-2 to +2)": 0, "mean protection from cisplatin (shift in death) (%)": 11.6}
{"gene symbol": "USP2 (ubiquitin specific peptidase 2)", "two-siRNA summed score (-2 to +2)": 0, "mean protection from cisplatin (shift in death) (%)": 1.3}

In a second layout: entries from further up
gene symbol	two-siRNA summed score (-2 to +2)	mean protection from cisplatin (shift in death) (%)
COPS7A (COP9 signalosome subunit 7A)	0	14
GPR157 (G protein-coupled receptor 157)	0	3.8
SPMIP9 (sperm microtubule inner protein 9)	0	2.9
WDR89 (WD repeat domain 89)	0	7.6
